# The supplement of paper PMC8728848
# Some of the results follow.
# B1: pullulanase (Streptococcus pyogenes), Q8KLP1 (protein)
# chain: MKKKVNQGSKRYQYLLKKWGIGFVIAATGTVMLGCIPSILTHQVAAKTIVGLARDEAQQGDGNAKSGDGFQSSSKEAKPVLDSSSANPASIAEHHLRMHFKTLPAGESLGSLGLWVWGDVDQPSKDWPNGAITMTKAKKDDYGYYLDVPLAAKHRQQVSYLINNKAGENLSKDQHIPLLTPKMNEVWIDENYHAHAYRPLKKGYLRINYHNQSGHYDNLAVWTFKDVKTPTTDWPNGLDLSHKGPYGAYVDVPLKEGANEIGFLILDKSKTGDAIKVQPKDYLFKELDNHTQVFVKDTDPKVYNNPYYIDQVSLKGAEQTTPNEIKAIFTTLDGLDEDAVKQNIKITDKAGKTVAIDELTLDKDKSVMTLKGDFKAQGAVYTVTFGEVSQVARQSWQLKDKLYAYDGELGATLAKDGSVDLALWSPSADSVKVVVYDKQDQTKVVGQADLTKSDKGVWRAHLTSDSVKGISDYTGYYYLYEITRGQEKVMVLDPYAKSLAAWNDATATDDIKTAKAAFIDPSKLGPTGLDFAKINNFKKREDAIIYEAHVRDFTSDKALEGKLTHPFGTFSAFVEQLDYLKDLGVTHVQLLPVLSYFYANELDKTRSTAYTSSDNNYNWGYDPQHYFALSGMYSANPNDPALRIAELKNLVNEIHKRGMGVIFDVVYNHTARTYLFEDLEPNYYHFMNADGTARESFGGGRLGTTHAMSRRILVDSITYLTREFKVDGFRFDMMGDHDAAAIEQAFKAAKAINPNTIMIGEGWRTYQGDEGKKEIAADQDWMKATNTVGVFSDDIRNTLKSGFPNEGTAAFITGGAKNLEGLFKTIKAQPSNFEADAPGDVVQYIAAHDNLTLHDVIAKSINKDPKVAEEEIHKRIRLGNTMILTAQGTAFIHSGQEYGRTKQLLNPDYKTKVSDDKVPNKATLIDAVAQYPYFIHDSYDSSDAVNHFDWAKATDSIAHPISNQTKAYTQGLIALRRSTDAFTKATKAEVDRDVTLITQAGQDGIQQEDLIMGYQTVASNGDRYAVFVNADNKTRKVVLPQAYRYLLGAQVLADAEQVGVTAIAKPKGVQFTKEGLTIDGLTALVLKVSSKTANPSQQKSQTDNHQTKTPDGSKDLDKSLMTRPKRAKTNQKLPKTGEAPSKGLLAAGVALLLLAISLLMKRQKD
# Assays:
# Assay in all cases: glycan array binding signal (z-score within array); higher = stronger binding
# Details in all cases: glycan notation: IUPAC condensed, linker removed
# [1] = target: Fuc(a1-2)Gal(b1-4)[Fuc(a1-3)]GlcNAc(b1-2)[Fuc(a1-2)Gal(b1-4)[Fuc(a1-3)]GlcNAc(b1-4)]Man(a1-3)[Fuc(a1-2)Gal(b1-4)[Fuc(a1-3)]GlcNAc(b1-2)Man(a1-6)]Man(b1-4)GlcNAc(b1-4)GlcNAc
# In short: (§1)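 The binding signal is a Z-score computed within each array and averaged over linkers. Arrays of the same protein sequence at different concentrations or buffers were also averaged together. Data originate from 3228 arrays in the Consortium for Functional Glycomics database, kept only where the protein sequence was available.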
# [2] = target: Fuc(a1-2)Gal(b1-4)[Fuc(a1-3)]GlcNAc(b1-3)Gal(b1-4)[Fuc(a1-3)]GlcNAc
# In short: as §1
# [3] = target: Fuc(a1-2)Gal(b1-4)[Fuc(a1-3)]GlcNAc(b1-3)Gal(b1-4)[Fuc(a1-3)]GlcNAc(b1-3)Gal(b1-4)[Fuc(a1-3)]GlcNAc
# In short: as §1
# [4] = target: Fuc(a1-2)Gal(b1-4)[Fuc(a1-3)]GlcNAc(b1-3)GalNAc
# In short: as §1
# Fuc(a1-2)Gal6S(b1-4)Glc = target: Fuc(a1-2)Gal6S(b1-4)Glc
# In short: as §1
# [5] = target: Fuc(a1-2)Gal6S(b1-4)Glc6S
# In short: as §1
# [6] = target: Fuc(a1-2)Gal6S(b1-4)GlcNAc
# In short: as §1
# Fuc(a1-2)[Gal(a1-3)]Gal = target: Fuc(a1-2)[Gal(a1-3)]Gal
# In short: as §1
# [7] = target: Fuc(a1-2)[Gal(a1-3)]Gal(b1-3)GlcNAc
# In short: as §1
# [8] = target: Fuc(a1-2)[Gal(a1-3)]Gal(b1-3)GlcNAc(b1-2)Man(a1-3)[Fuc(a1-2)[Gal(a1-3)]Gal(b1-3)GlcNAc(b1-2)Man(a1-6)]Man(b1-4)GlcNAc(b1-4)GlcNAc
# In short: as §1
# [9] = target: Fuc(a1-2)[Gal(a1-3)]Gal(b1-3)GlcNAc(b1-3)GalNAc
# In short: as §1
# [10] = target: Fuc(a1-2)[Gal(a1-3)]Gal(b1-4)Glc
# In short: as §1
# [11] = target: Fuc(a1-2)[Gal(a1-3)]Gal(b1-4)GlcNAc
# In short: as §1
# [12] = target: Fuc(a1-2)[Gal(a1-3)]Gal(b1-4)GlcNAc(b1-2)Man(a1-3)[Fuc(a1-2)[Gal(a1-3)]Gal(b1-4)GlcNAc(b1-2)Man(a1-6)]Man(b1-4)GlcNAc(b1-4)GlcNAc
# In short: as §1
# [13] = target: Fuc(a1-2)[Gal(a1-3)]Gal(b1-4)GlcNAc(b1-2)Man(a1-3)[Fuc(a1-2)[Gal(a1-3)]Gal(b1-4)GlcNAc(b1-2)Man(a1-6)]Man(b1-4)GlcNAc(b1-4)[Fuc(a1-6)]GlcNAc
# In short: as §1
# [14] = target: Fuc(a1-2)[Gal(a1-3)]Gal(b1-4)GlcNAc(b1-3)GalNAc
# In short: as §1
# [15] = target: Fuc(a1-2)[Gal(a1-3)]Gal(b1-4)[Fuc(a1-3)]Glc
# In short: as §1
# [16] = target: Fuc(a1-2)[Gal(a1-3)]Gal(b1-4)[Fuc(a1-3)]GlcNAc
# In short: as §1
# [17] = target: Fuc(a1-2)[Gal(a1-3)]Gal(b1-4)[Fuc(a1-3)]GlcNAc(b1-3)GalNAc
# In short: as §1
# [18] = target: Fuc(a1-2)[Gal(a1-4)]Gal(b1-4)GlcNAc
# In short: as §1
# [19] = target: Fuc(a1-2)[GalNAc(a1-3)]Gal
# In short: as §1
# [20] = target: Fuc(a1-2)[GalNAc(a1-3)]Gal(b1-3)GalNAc(a1-3)[Fuc(a1-2)]Gal(b1-4)GlcNAc
# In short: as §1
# [21] = target: Fuc(a1-2)[GalNAc(a1-3)]Gal(b1-3)GlcNAc
# In short: as §1
# [22] = target: Fuc(a1-2)[GalNAc(a1-3)]Gal(b1-3)GlcNAc(b1-2)Man(a1-3)[Fuc(a1-2)[GalNAc(a1-3)]Gal(b1-3)GlcNAc(b1-2)Man(a1-6)]Man(b1-4)GlcNAc(b1-4)GlcNAc
# In short: as §1
# [23] = target: Fuc(a1-2)[GalNAc(a1-3)]Gal(b1-3)GlcNAc(b1-3)GalNAc
# In short: as §1
# [24] = target: Fuc(a1-2)[GalNAc(a1-3)]Gal(b1-4)Glc
# In short: as §1
# [25] = target: Fuc(a1-2)[GalNAc(a1-3)]Gal(b1-4)GlcNAc
# In short: as §1
# [26] = target: Fuc(a1-2)[GalNAc(a1-3)]Gal(b1-4)GlcNAc(b1-2)Man(a1-3)[Fuc(a1-2)[GalNAc(a1-3)]Gal(b1-4)GlcNAc(b1-2)Man(a1-6)]Man(b1-4)GlcNAc(b1-4)GlcNAc
# In short: as §1
# [27] = target: Fuc(a1-2)[GalNAc(a1-3)]Gal(b1-4)GlcNAc(b1-3)Gal(b1-4)GlcNAc
# In short: as §1
# [28] = target: Fuc(a1-2)[GalNAc(a1-3)]Gal(b1-4)GlcNAc(b1-3)Gal(b1-4)GlcNAc(b1-3)Gal(b1-4)GlcNAc
# In short: as §1
binder,measurement,setting,value
B1,glycan array binding signal (z-score),[1],0.911
same,glycan array binding signal (z-score),[2],0.134
same,glycan array binding signal (z-score),[3],2.22
same,glycan array binding signal (z-score),[4],3.14
same,glycan array binding signal (z-score),Fuc(a1-2)Gal6S(b1-4)Glc,0.263
same,glycan array binding signal (z-score),[5],0.585
same,glycan array binding signal (z-score),[6],-0.286
same,glycan array binding signal (z-score),Fuc(a1-2)[Gal(a1-3)]Gal,0.255
same,glycan array binding signal (z-score),[7],-0.132
same,glycan array binding signal (z-score),[8],-0.501
same,glycan array binding signal (z-score),[9],0.215
same,glycan array binding signal (z-score),[10],-0.403
same,glycan array binding signal (z-score),[11],-0.912
same,glycan array binding signal (z-score),[12],-0.328
same,glycan array binding signal (z-score),[13],-0.759
same,glycan array binding signal (z-score),[14],-0.009
same,glycan array binding signal (z-score),[15],-0.686
same,glycan array binding signal (z-score),[16],-0.03
same,glycan array binding signal (z-score),[17],-0.89
same,glycan array binding signal (z-score),[18],-0.131
same,glycan array binding signal (z-score),[19],-0.236
same,glycan array binding signal (z-score),[20],-1.19
same,glycan array binding signal (z-score),[21],-1.41
same,glycan array binding signal (z-score),[22],-0.215
same,glycan array binding signal (z-score),[23],2.51
same,glycan array binding signal (z-score),[24],-1.07
same,glycan array binding signal (z-score),[25],-0.344
same,glycan array binding signal (z-score),[26],-0.346
same,glycan array binding signal (z-score),[27],-0.355
same,glycan array binding signal (z-score),[28],-1.06

# An excerpt of these results, with tabs:
binder	measurement	setting	value
B1	glycan array binding signal (z-score)	[5]	0.585
same	glycan array binding signal (z-score)	[6]	-0.286
same	glycan array binding signal (z-score)	Fuc(a1-2)[Gal(a1-3)]Gal	0.255
same	glycan array binding signal (z-score)	[7]	-0.132
same	glycan array binding signal (z-score)	[8]	-0.501
same	glycan array binding signal (z-score)	[9]	0.215
same	glycan array binding signal (z-score)	[10]	-0.403
same	glycan array binding signal (z-score)	[11]	-0.912
same	glycan array binding signal (z-score)	[12]	-0.328
